From PMC4161973

Chains of the proteins cited; added tags and fusions are not shown. Lines headed by an entry give the natural chain unless they say otherwise; changes in a name come on top.
UniProt P39938: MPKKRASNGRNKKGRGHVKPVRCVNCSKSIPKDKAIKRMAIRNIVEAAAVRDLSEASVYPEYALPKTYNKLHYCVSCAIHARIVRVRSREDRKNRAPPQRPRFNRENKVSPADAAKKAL

What was measured:
[1] = target: T1, GST-Kap123 (S. cerevisiae) (UniProt P40069); experiment: pull-down; GST-importins immobilised on Glutathione Sepharose, incubated with E. coli lysate containing ∼4 µM eS26^FLAG (or its mutants, or GFP-eS26) in PBSKMT with competing E. coli lysates for 1 hr at 4°C; Coomassie Blue staining or Western; only the target purified
T1 sequence: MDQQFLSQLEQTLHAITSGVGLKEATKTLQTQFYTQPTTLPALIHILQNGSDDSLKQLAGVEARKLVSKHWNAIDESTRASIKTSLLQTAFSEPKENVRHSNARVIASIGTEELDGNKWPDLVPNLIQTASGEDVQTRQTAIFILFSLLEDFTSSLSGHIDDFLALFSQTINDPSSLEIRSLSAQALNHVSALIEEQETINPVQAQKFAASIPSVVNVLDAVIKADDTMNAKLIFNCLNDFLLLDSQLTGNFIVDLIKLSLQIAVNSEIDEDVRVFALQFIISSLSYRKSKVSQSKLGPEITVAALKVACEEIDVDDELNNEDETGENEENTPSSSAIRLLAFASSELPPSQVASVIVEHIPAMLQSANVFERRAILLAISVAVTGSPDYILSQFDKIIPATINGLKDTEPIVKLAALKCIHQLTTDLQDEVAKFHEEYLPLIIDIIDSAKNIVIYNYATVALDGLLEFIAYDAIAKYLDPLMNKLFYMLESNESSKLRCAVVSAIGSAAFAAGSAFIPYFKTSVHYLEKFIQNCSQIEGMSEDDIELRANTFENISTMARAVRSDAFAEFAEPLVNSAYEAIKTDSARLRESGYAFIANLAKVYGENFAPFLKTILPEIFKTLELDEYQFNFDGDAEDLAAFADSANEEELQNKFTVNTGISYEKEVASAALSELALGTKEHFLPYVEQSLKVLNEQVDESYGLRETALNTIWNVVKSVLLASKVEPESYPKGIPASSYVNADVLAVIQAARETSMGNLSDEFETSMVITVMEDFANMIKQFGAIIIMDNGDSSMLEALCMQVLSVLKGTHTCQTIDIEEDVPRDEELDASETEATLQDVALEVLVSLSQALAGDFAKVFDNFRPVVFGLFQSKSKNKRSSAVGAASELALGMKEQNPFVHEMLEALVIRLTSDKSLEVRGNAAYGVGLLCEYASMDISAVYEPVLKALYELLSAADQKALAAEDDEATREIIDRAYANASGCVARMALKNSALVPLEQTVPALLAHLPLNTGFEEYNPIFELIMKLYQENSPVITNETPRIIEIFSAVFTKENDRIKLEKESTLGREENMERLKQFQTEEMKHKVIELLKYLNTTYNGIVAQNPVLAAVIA

[2] = target: T2, GST-tagged Sxm1 (S. cerevisiae) (UniProt Q04175); experiment: as above
T2 sequence: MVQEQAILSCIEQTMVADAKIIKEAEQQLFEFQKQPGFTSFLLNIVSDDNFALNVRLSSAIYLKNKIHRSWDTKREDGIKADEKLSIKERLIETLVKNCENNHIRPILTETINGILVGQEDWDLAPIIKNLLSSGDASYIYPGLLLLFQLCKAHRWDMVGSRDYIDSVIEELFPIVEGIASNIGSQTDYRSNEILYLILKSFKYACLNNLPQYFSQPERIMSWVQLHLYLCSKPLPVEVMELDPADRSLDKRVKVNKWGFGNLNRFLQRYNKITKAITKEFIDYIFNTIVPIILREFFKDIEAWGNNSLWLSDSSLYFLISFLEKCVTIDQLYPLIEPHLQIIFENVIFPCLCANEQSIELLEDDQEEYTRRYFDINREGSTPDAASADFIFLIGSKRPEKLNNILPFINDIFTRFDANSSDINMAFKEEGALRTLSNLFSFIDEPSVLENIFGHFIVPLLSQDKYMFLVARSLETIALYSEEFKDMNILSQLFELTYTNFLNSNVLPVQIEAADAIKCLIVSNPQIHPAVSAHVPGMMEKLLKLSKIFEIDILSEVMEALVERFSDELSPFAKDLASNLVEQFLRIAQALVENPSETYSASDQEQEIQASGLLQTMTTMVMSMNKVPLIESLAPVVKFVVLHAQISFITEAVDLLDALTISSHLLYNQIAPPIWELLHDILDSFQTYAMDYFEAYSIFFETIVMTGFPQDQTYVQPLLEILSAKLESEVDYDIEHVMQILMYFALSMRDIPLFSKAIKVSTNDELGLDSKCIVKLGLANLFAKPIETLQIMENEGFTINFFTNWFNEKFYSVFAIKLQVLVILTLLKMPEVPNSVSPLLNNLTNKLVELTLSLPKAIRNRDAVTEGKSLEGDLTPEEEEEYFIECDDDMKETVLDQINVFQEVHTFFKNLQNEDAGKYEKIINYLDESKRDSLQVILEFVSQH

binding [1]: binds | binding [2]: binds weakly
Substance: eS26^FLAG (from UniProt P39938)

These are yes or no findings as the source states them, for the method shown. Binding seen in cells or lysates may run through a third protein. Binding can be weak; no strength is given. Tags and fused reporters may be left off the sequences shown.
